Data as given in PubChem BioAssay AID1671195 (Yale University, 2021)
Here is a random part of about 22,000 reagents. About 1,510 of them (6.9%) count as active. 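Active includes knockdowns raising or lowering LDL uptake; positive z-scores mean more uptake, negative mean less.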 Unmarked entries are inactive.

Assay: 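Genes whose knockdown alters LDL uptake in liver cancer cells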 (primary screen)
Cell system: human Huh7 hepatoma cells
Reagent: siRNA pool against human genes, 18 nM
Time to read-out: about 2 to 2.5 days of knockdown, then 8 h LDL uptake
Treatment: DiI-labelled LDL at 30 µg/ml for 8 h, in lipoprotein-deficient serum medium
Measurement: 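Per-cell DiI-LDL intensity by automated imaging; well means scaled to the plate median and given as a robust z-score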
Scale: robust z-score: higher = more LDL uptake after knockdown
Hit rule: 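a gene counts as active if at least two replicate z-scores exceed ±2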

no.	target gene	robust z-score, replicate 1	robust z-score, replicate 2	robust z-score, replicate 3
1	RPL7 (ribosomal protein L7)	-1.69	-0.716	-1.65
2	LOC441469 (retired record)	-0.777	-1.73	-1.08
3	IGSF21 (immunoglobin superfamily member 21)	-0.0019	0.12	-0.103
4	CMTR2 (cap methyltransferase 2)	-2.17	-0.238	-0.482
5	ANKRD13D (ankyrin repeat domain 13D)	0.0825	0.000958	0.375
6	MED13 (mediator complex subunit 13)	-0.0575	2.03	-0.108
7	SIK3 (SIK family kinase 3)	3.1 (active)	3.46	1.17
8	LOC285188 (retired record)	0.199	-0.0971	-0.171
9	SCUBE3 (signal peptide, CUB domain and EGF like domain containing 3)	0.673	0.815	1.04
10	NUP85 (nucleoporin 85)	-0.266	-0.277	-0.398
11	MGAT4D (MGAT4 family member D)	0.858	0.287	0.761
12	FAM174B (family with sequence similarity 174 member B)	0.185	1.01	0.878
13	PEG3 (paternally expressed 3)	0.0673	-0.945	0.00601
14	ADAM28 (ADAM metallopeptidase domain 28)	0.23	-0.101	0.538
15	SAYSD1 (SAYSVFN motif domain containing 1)	-0.378	0.081	-0.0061
16	ZNF283 (zinc finger protein 283)	-0.178	-0.321	-0.00621
17	LOC391241 (retired record)	-0.885	-0.515	-0.991
18	H1-10 (H1.10 linker histone)	1.67	0.197	0.0742
19	GPCPD1 (glycerophosphocholine phosphodiesterase 1)	-2.25 (active)	-0.00791	-2.25
20	LOC390828 (retired record)	1.01	1.22	1.93
21	ANP32B (acidic nuclear phosphoprotein 32 family member B)	2.99 (active)	2.65	2.25
22	SGSH (N-sulfoglucosamine sulfohydrolase)	-0.595	0.543	-0.233
23	CHIC2 (cysteine rich hydrophobic domain 2)	1.44	2.37	1.4
24	RPL23AP87 (ribosomal protein L23a pseudogene 87)	-0.00223	-0.167	-0.272
25	LOC401051 (retired record)	0.0105	-0.0137	-0.271
26	BOD1L1 (biorientation of chromosomes in cell division 1 like 1)	-0.734	-0.691	-0.273
27	LOC441283 (retired record)	0.0909	-0.304	-0.48
28	BDH1 (3-hydroxybutyrate dehydrogenase 1)	-0.852	-0.414	-0.402
29	BICRAL (BICRA like chromatin remodeling complex associated protein)	-0.233	1.14	0.0795
30	MEFV (MEFV innate immunity regulator, pyrin)	0.381	1.23	0.537
31	LOC442407 (retired record)	-1.51	-1.04	-1.26
32	LHFPL2 (LHFPL tetraspan subfamily member 2)	-0.67	-0.924	-1.41
33	CS (citrate synthase)	-0.142	1.23	0.195
34	MIOX (myo-inositol oxygenase)	-0.438	-0.544	-0.374
35	BTF3P13 (basic transcription factor 3 pseudogene 13)	1.18	0.211	0.15
36	DNAJC9 (DnaJ heat shock protein family (Hsp40) member C9)	-0.0302	0.477	0.153
37	DDX56 (DEAD-box helicase 56)	-1.74	-0.593	-0.123
38	FAM114A1 (family with sequence similarity 114 member A1)	0.337	-0.227	-0.436
39	MADD (MAP kinase activating death domain)	0.626	0.927	0.00348
40	TRPC4	1.43	1.12	1.08
41	FANCF (FA complementation group F)	1.57 (active)	3.35	2.47
42	STRADA (STE20 related adaptor alpha)	0.34	-0.327	-0.325
43	CEACAM4 (CEA cell adhesion molecule 4)	-1.41	-1.27	-0.94
44	ZNF592 (zinc finger protein 592)	-0.309	-0.457	-0.458
45	LOC440596 (retired record)	-1.02	-1.27	-0.94
46	PMCHL1 (pro-melanin concentrating hormone like 1 (pseudogene))	-0.278	0.167	0.426
47	ANKRD17 (ankyrin repeat domain 17)	-0.368	-0.257	-0.514
48	ADAMTS6 (ADAM metallopeptidase with thrombospondin type 1 motif 6)	-1.07	-1.32	-1.22
49	LINC02991 (long independently transcribed non-coding RNA 2991)	-1.34	-1.68	-1.53
50	PGAM2 (phosphoglycerate mutase 2)	-2.35 (active)	-2.37	-2.23
51	FAM110A (family with sequence similarity 110 member A)	1.08	0.347	0.00746
52	RPRML (reprimo like)	0.724	1.08	0.61
53	RNASE2 (ribonuclease A family member 2)	0.185	0.211	0.935
54	XPO7 (exportin 7)	-0.114	1.85	-0.309
55	IFT54 (intraflagellar transport 54)	0.556	0.917	0.617
56	AFG2A (AAA ATPase AFG2A)	-1.24	-0.48	-0.797
57	FZD9 (frizzled class receptor 9)	0.0671	0.31	0.961
58	GOLM1 (golgi membrane protein 1)	0.45	0.361	0.345
59	CHEK2 (checkpoint kinase 2)	-0.862	0.225	-0.181
60	ASB17 (ankyrin repeat and SOCS box containing 17)	3.22 (active)	2.55	2.99
61	EGR3 (early growth response 3)	-0.78	-0.112	-0.58
62	BAZ2A (bromodomain adjacent to zinc finger domain 2A)	0.0207	2.47	0.837
63	PRICKLE4 (prickle planar cell polarity protein 4)	0.725	3.86	1.4
64	ZBTB3 (zinc finger and BTB domain containing 3)	1.13	0.535	0.178
65	GGNBP2 (gametogenetin binding protein 2)	1.98	1.65	1.64
66	CBLB (Cbl proto-oncogene B)	0.928	0.11	0.35
67	CRLS1 (cardiolipin synthase 1)	0.00648	0.282	0.585
68	KIF21A (kinesin family member 21A)	-1.21	-0.213	-1.34
